Experimental data taken from PubChem BioAssay AID256 (DTP/NCI, 2004).
The list is a part of this screen's results and no random one: it is rich in T/C values a quarter to a half above the control, in often repeated tests (any T/C) and in doses without a T/C. Other doses and runs of a compound stand elsewhere. T/C: endpoint of the treated group in % of that of the vehicle group. Some doses have a count of surviving animals in place of a T/C: the source files T/C as zero there, which appears to mark a toxic dose or a test without result, not a measured value. Some survivor counts are full or nearly so, which does not show that the dose was tolerated: survival well below the control is almost never listed, so the zero probably covers shortened survival too. Survivors were counted at the toxicity check, usually on the fifth day, unless a day is given; later deaths do not show. Schedule codes are those of the source, taken here to give the interval after Q, in days (D) or hours (H), and the number of doses after X. For survival time, this PubChem deposit counts one and a half times the control or more as active, and values a quarter to a half above the control carry no call in these data; other NCI protocols may use other cut-offs. Some entries were tested several times; their values stand side by side, smallest first. Some T/C values carry the count of animals alive at the toxicity check (mostly the fifth day); without a count, all were alive then.

Test system: CD2F1 mice, L1210 leukemia ip, survival T/C
Assay: NCI In Vivo Anticancer Drug Screen. Data for tumor model L1210 Leukemia (intraperitoneal) in CD2F1 (CDF1) mice
Conditions: higher T/C = longer survival
How it was run: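 Activity against a transplanted murine tumor was judged by comparing the compound group with a vehicle group. The outcome in the treated animals was divided by that in the controls.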

[1] = T/C endpoint: mean survival time, dose: 200.0 mg/kg/injection, schedule: Q01DX009 (ip), vehicle: saline
[2] = T/C endpoint: mean survival time, dose: 400.0 mg/kg/injection, schedule: Q01DX009 (ip), vehicle: saline with Tween-80
[3] = T/C endpoint: mean survival time, dose: 100.0 mg/kg/injection, schedule: Q04DX003 (ip), vehicle: saline with Tween-80
[4] = T/C endpoint: mean survival time, dose: 200.0 mg/kg/injection, schedule: Q04DX003 (ip), vehicle: saline with Tween-80
[5] = T/C endpoint: mean survival time, dose: 400.0 mg/kg/injection, schedule: Q04DX003 (ip), vehicle: saline with Tween-80
[6] = T/C endpoint: mean survival time, dose: 400.0 mg/kg/injection, schedule: Q01DX001 (ip), vehicle: saline with Tween-80
[7] = T/C endpoint: mean survival time, dose: 200.0 mg/kg/injection, schedule: Q01DX009 (ip), vehicle: saline with Tween-80
[8] = T/C endpoint: mean survival time, dose: 300.0 mg/kg/injection, schedule: Q01DX009 (ip), vehicle: Klucel (hydroxypropylcellulose) (HPC)
[9] = T/C endpoint: mean survival time, dose: 400.0 mg/kg/injection, schedule: Q04DX002 (ip), vehicle: saline with Tween-80

For `Nc1nc(SCc2ccccc2)c2[nH]cnc2n1`, the T/C (T/C endpoint: mean survival time, dose: 15.6 mg/kg/injection, schedule: Q01DX009 (ip), vehicle: saline) was 149 % of control, the T/C (T/C endpoint: mean survival time, dose: 37.5 mg/kg/injection, schedule: Q01DX007 (ip), vehicle: saline) was 133 % of control and the T/C (T/C endpoint: mean survival time, dose: 37.5 mg/kg/injection, schedule: Q01DX009 (ip), vehicle: saline) was 142 % of control. The T/C (T/C endpoint: mean survival time, dose: 75.0 mg/kg/injection, schedule: Q01DX007 (ip), vehicle: saline) was 136 % of control, the T/C (T/C endpoint: mean survival time, dose: 75.0 mg/kg/injection, schedule: Q01DX009 (ip), vehicle: saline) was 140 % of control and the T/C (T/C endpoint: mean survival time, dose: 75.0 mg/kg/injection, schedule: Q03DX003 (ip), vehicle: saline) was 148 % of control. The T/C (T/C endpoint: mean survival time, dose: 125.0 mg/kg/injection, schedule: Q01DX009 (ip), vehicle: saline) was 146 % of control [5 of 6 alive], the survivor count (T/C endpoint: mean survival time, dose: 150.0 mg/kg/injection, schedule: Q04DX003 (ip), vehicle: saline) was 3 of 6 and the survivor count (T/C endpoint: median survival time, dose: 250.0 mg/kg/injection, schedule: Q01DX009 (ip), vehicle: saline) was 3 of 6.
For `CN(C)CC(=O)N/N=C\c1ccc([N+](=O)[O-])s1`, the survivor count [1] was 2 of 6.
For `O=C(O)CN(CC(=O)O)C1CCCCC1N(CC(=O)O)CC(=O)O.[Cl][Pt+2][Cl]` (configuration not stated), the survivor count (T/C endpoint: median survival time, dose: 160.0 mg/kg/injection, schedule: Q04DX003 (ip), vehicle: saline) was 0 of 6 and the survivor count (T/C endpoint: median survival time, dose: 320.0 mg/kg/injection, schedule: Q04DX003 (ip), vehicle: saline) was 0 of 6.
With `CCCCCC(C)NCCO` (configuration not stated) the survivor count (T/C endpoint: mean survival time, dose: 150.0 mg/kg/injection, schedule: Q01DX001 (ip), vehicle: saline) was 2 of 6 and the survivor count (T/C endpoint: mean survival time, dose: 300.0 mg/kg/injection, schedule: Q01DX001 (ip), vehicle: saline) was 0 of 6.
With `CSc1ccc(C)cn1` (tested in a mixture with another compound) the survivor count [2] was 0 of 6.
In the case of `COc1ccc(/C=C/c2ccc3ccccc3[n+]2C)c(OC)c1OC`, the survivor count (T/C endpoint: mean survival time, dose: 20.0 mg/kg/injection, schedule: Q01DX009 (ip), vehicle: saline) is reported as 4 of 6, the survivor count [3] is reported as 0 of 6 and the survivor count [4] is reported as 0 of 6. The survivor count [5] was 0 of 6.
In the case of `CC(C)CCCC(C)C1CCC2C3CCC4=CC5(CCC4(C)C3CCC12C)SCCS5` (configuration not stated), the survivor count [6] is reported as 6 of 6.
`N#Cc1c(NC(=S)NC2OC(COCc3ccccc3)C(OCc3ccccc3)C2OCc2ccccc2)ncn1Cc1ccccc1` (configuration not stated) was tested, and the survivor count (T/C endpoint: mean survival time, dose: 400.0 mg/kg/injection, schedule: Q04DX003 (ip), vehicle: acetone) was 6 of 6.
With `CN1CCc2cc(O)cc3c2C1Cc1ccc(O)c(O)c1-3` (configuration not stated) the T/C (T/C endpoint: mean survival time, dose: 400.0 mg/kg/injection, schedule: Q04DX003 (ip), vehicle: DMSO) was 128 % of control.
In the case of `CNN=C1CCCC1`, the survivor count (T/C endpoint: mean survival time, dose: 50.0 mg/kg/injection, schedule: Q01DX009 (ip), vehicle: saline) is reported as 3 of 3, the survivor count (T/C endpoint: mean survival time, dose: 100.0 mg/kg/injection, schedule: Q01DX009 (ip), vehicle: saline) is reported as 0 of 3 and the survivor count [1] is reported as 0 of 3. For the same compound, the survivor count (T/C endpoint: mean survival time, dose: 400.0 mg/kg/injection, schedule: Q01DX009 (ip), vehicle: saline) was 0 of 3.
`COc1cc2c(cc1OC)-c1cc3cc(OC)c(OC)cc3c(C)[n+]1CC2` (tested in a mixture with another compound) was tested, and the survivor count (T/C endpoint: mean survival time, dose: 200.0 mg/kg/injection, schedule: Q04DX003 (ip), vehicle: saline sonified) was 0 of 6 and the survivor count (T/C endpoint: mean survival time, dose: 400.0 mg/kg/injection, schedule: Q04DX003 (ip), vehicle: saline sonified) was 0 of 6.
In the case of `COc1cccc2c1C(=O)c1c(O)c3c(c(O)c1C2=O)C[C@@](O)(C(C)=O)C[C@@H]3OC1CC(N(C)C)C(O)C(C)O1` (some centres not stated), the T/C (T/C endpoint: mean survival time, dose: 1.0 mg/kg/injection, schedule: Q01DX009 (ip), vehicle: saline) is reported as 125 % of control, the T/C (T/C endpoint: mean survival time, dose: 2.0 mg/kg/injection, schedule: Q01DX009 (ip), vehicle: saline) is reported as 132 % of control and the T/C (T/C endpoint: mean survival time, dose: 2.0 mg/kg/injection, schedule: Q01DX009 (ip), vehicle: water) is reported as 125 % of control. For the same compound, the T/C (T/C endpoint: mean survival time, dose: 4.0 mg/kg/injection, schedule: Q01DX009 (ip), vehicle: saline) was 149 % of control and the T/C (T/C endpoint: mean survival time, dose: 4.0 mg/kg/injection, schedule: Q01DX009 (ip), vehicle: water) was 145 % of control.
`C[N+]1(C)CCc2ccccc2C1Cc1ccc(Oc2ccc(CC3c4ccccc4CC[N+]3(C)C)cc2)cc1` (configuration not stated) was tested, and the survivor count (T/C endpoint: mean survival time, dose: 0.78 mg/kg/injection, schedule: Q01DX009 (ip), vehicle: saline) was 0 of 3, the survivor count (T/C endpoint: mean survival time, dose: 3.13 mg/kg/injection, schedule: Q01DX009 (ip), vehicle: other) was 0 of 3 and the survivor count (T/C endpoint: mean survival time, dose: 6.25 mg/kg/injection, schedule: Q01DX009 (ip), vehicle: other) was 0 of 3. The survivor count (T/C endpoint: mean survival time, dose: 12.5 mg/kg/injection, schedule: Q01DX009 (ip), vehicle: other) was 0 of 3.
For `CN(C)C1CCCC(OC(=O)c2ccccc2)C1` (configuration not stated), the survivor count (T/C endpoint: mean survival time, dose: 400.0 mg/kg/injection, schedule: Q01DX001 (ip), vehicle: saline) was 0 of 6.
In the case of `COc1cc(NCCCCCCCNC(C)C)c2nccc(C)c2c1`, the survivor count (T/C endpoint: median survival time, dose: 25.0 mg/kg/injection, schedule: Q01DX009 (ip), vehicle: saline) is reported as 3 of 6 and the survivor count (T/C endpoint: median survival time, dose: 50.0 mg/kg/injection, schedule: Q01DX009 (ip), vehicle: saline) is reported as 6 of 6.
In the case of `Cc1ccc(C(=O)CC#N)c(C)c1`, the survivor count [7] is reported as 5 of 6.
In the case of `CN(C)N=Nc1ccccc1C(=O)NCC(N)=O`, the T/C (T/C endpoint: mean survival time, dose: 75.0 mg/kg/injection, schedule: Q01DX009 (ip), vehicle: Klucel (hydroxypropylcellulose) (HPC)) is reported as 128 and 130 % of control, the T/C (T/C endpoint: mean survival time, dose: 150.0 mg/kg/injection, schedule: Q01DX009 (ip), vehicle: Klucel (hydroxypropylcellulose) (HPC)) is reported as 135 and 140 % of control and the T/C [8] is reported as 125 % of control. The survivor count [8] was 6 of 6.
`Clc1n[nH]c(Cl)n1` was tested, and the survivor count [4] was 2 of 6 and the survivor count [5] was 0 of 6.
`O=C(OC/C=C/CCl)c1ccc([N+](=O)[O-])cc1` was tested, and the survivor count [7] was 3 of 6 and the survivor count [2] was 3 of 6.
With `COc1ccccc1NC(=O)Oc1ccc(Cl)cc1Cl` the survivor count [9] was 0 of 3.
In the case of `O=C(Oc1ccn(C2OC(CO)C(O)C2O)c(=O)c1)C12CC3CC(CC(C3)C1)C2` (configuration not stated), the T/C (T/C endpoint: median survival time, dose: 10.0 mg/kg/injection, schedule: Q01DX009 (ip), vehicle: saline + Tween-80 + alcohol) is reported as 137 % of control.
With `S=C=Nc1ccccn1` the survivor count [9] was 0 of 3.
For `CCOC(CSCC#N)OCC`, the survivor count [3] was 3 of 6, the survivor count [4] was 0 of 6 and the survivor count [5] was 0 of 6.
In the case of `CC(N)C(=O)c1ccccc1` (configuration not stated), the survivor count (T/C endpoint: mean survival time, dose: 400.0 mg/kg/injection, schedule: Q04DX003 (ip), vehicle: saline) is reported as 0 of 6.
For `Nc1nc(-c2ccc([N+](=O)[O-])cc2)c([N+](=O)[O-])c(=O)[nH]1`, the survivor count (T/C endpoint: mean survival time, dose: 25.0 mg/kg/injection, schedule: Q01DX001 (ip), vehicle: saline with Tween-80) was 3 of 6, the survivor count (T/C endpoint: mean survival time, dose: 50.0 mg/kg/injection, schedule: Q01DX001 (ip), vehicle: saline with Tween-80) was 3 of 6 and the survivor count (T/C endpoint: mean survival time, dose: 100.0 mg/kg/injection, schedule: Q01DX001 (ip), vehicle: saline with Tween-80) was 3 of 6. For the same compound, the survivor count (T/C endpoint: mean survival time, dose: 200.0 mg/kg/injection, schedule: Q01DX001 (ip), vehicle: saline with Tween-80) was 2 of 6 and the survivor count [6] was 3 of 6.
In the case of `[N-]=[N+]=NCC1OC(OC2(CO)OC(CN=[N+]=[N-])C(O)C2O)C(O)C(O)C1O` (configuration not stated), the survivor count [1] is reported as 2 of 3.
